Reference: patent publication US4315010A, “Glaucine phosphate salts” (priority 1979, dated 1982)

Assay: Palatability of 0.2 percent aqueous salt solutions touched to the tongue
Details: 0.2 percent (weight by volume) solutions in distilled water, d,l-glaucine salts; listed as d,l-Glaucine phosphate (2:3)

## COc1cc2c(cc1OC)-c1c(OC)c(OC)cc3c1C(C2)N(C)CC3 (racemic) [d,l-glaucine phosphate, d,l-Glaucine Phosphate]
  palatability: lack the sharp, metallic flavor and to be unobjectionable
